These are yes or no findings as the source states them, for the method shown. In cells and extracts the contact can be indirect. Binding can be weak; no strength is given.
Target: MoArf1-GFP (Magnaporthe oryzae) (UniProt G4MSB4)
Experiment: co-IP

Amino acid sequences for entries named in this document (tags omitted). A change or cut given only in a name is not applied to a line headed by its entry.
UniProt G4MSB4: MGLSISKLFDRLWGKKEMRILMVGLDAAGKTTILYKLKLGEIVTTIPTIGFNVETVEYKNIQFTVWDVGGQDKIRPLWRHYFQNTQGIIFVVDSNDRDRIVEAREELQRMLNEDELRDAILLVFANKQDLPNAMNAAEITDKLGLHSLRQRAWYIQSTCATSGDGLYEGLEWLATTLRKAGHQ
UniProt G4N3J3: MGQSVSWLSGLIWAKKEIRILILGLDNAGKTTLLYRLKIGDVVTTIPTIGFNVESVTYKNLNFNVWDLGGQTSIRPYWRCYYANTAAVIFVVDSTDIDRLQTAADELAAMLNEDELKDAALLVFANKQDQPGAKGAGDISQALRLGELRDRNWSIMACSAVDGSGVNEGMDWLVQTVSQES

Substance: MoArl1-S (from UniProt G4N3J3)
- binding: binds

Reference: article PMC6794486
